We go through one molecule from US20210403587A1.

Chains of the proteins cited; added tags and fusions are not shown. Residues count along the entry.
UniProt Q02223, residues 1-54: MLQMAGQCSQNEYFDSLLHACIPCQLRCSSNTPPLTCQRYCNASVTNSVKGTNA

This test concerns the target human B-cell maturation antigen (BCMA) (human) (UniProt Q02223). As to the kind of experiment: ELISA on protein and/or binding to cells expressing the target. (In general: In an ELISA, binding on a coated surface is turned into a signal by an enzyme label.)

Results are given in words; binding and its absence hold for the method and conditions named. Some binding calls cover weakened binding; strength is not graded here.

B1: Anti-BCMA heavy chain-only variable region of TNB-383B (BCMA monovalent heavy chain) (antibody, V domains shown)
VH: EVQLLESGGGLVQPGGSLRLSCAASGFTVSSYGMSWVRQAPGKGPEWVSGIRGSDGSTYYADSVKGRFTISRDNSKNTLYLQMNSLRAEDTAVYYCAKQGENDGPFDHRGQGTLVTVSS
As to B1, the binding entry is listed as “binds”.
